# Results are given in words; binding and its absence hold for the method and conditions named. In cells and extracts the contact can be indirect. These calls come from enrichment with a bait or labelling near it, and not all partners need be listed.
# Chains of the proteins cited; added tags and fusions are not shown. Lines headed by an entry give the natural chain unless they say otherwise; changes in a name come on top.
# UniProt P02795: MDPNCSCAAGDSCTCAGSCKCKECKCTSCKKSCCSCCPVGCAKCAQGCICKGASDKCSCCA
# UniProt P14618: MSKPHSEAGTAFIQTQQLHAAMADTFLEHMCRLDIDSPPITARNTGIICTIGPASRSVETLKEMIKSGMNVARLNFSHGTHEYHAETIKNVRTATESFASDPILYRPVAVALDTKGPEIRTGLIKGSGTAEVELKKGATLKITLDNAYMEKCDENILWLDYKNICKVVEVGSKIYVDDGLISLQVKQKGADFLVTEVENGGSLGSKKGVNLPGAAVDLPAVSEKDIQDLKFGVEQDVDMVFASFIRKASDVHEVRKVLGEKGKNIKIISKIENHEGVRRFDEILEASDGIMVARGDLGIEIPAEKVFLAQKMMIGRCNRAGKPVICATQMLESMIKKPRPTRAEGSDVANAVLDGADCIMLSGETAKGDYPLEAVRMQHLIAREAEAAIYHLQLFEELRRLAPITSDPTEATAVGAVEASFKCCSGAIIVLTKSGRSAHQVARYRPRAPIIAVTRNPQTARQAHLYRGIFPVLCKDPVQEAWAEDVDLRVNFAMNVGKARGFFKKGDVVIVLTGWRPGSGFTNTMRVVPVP
# Biological target: MT2A-Flag (metallothionein-2A) (UniProt P02795)
# Test: affinity purification with mass spectrometry; MT2A-Flag precipitated with Flag-beads from T47D cells (1x10^8) stably expressing MT2A-Flag, hypoxia (1% O2 for 24 h) versus normoxia; LC-MS/MS
substance,measurement,value
Pyruvate kinase M2 (PKM2) of T47D cells (from UniProt P14618 1-531) (enzyme),binding,binds
